Here are results for three substances from publication PMC11643744 (Molecules, 2024).

Some peptides are written in HELM: one residue between dots, names in brackets for other building blocks, links after the first $.

The data set in a line: general procedure: Fmoc solid-phase peptide synthesis; TentaGel S RAM resin (loading 0.25 mM/g); TBTU/HOBt/N-methylmorpholine. Particulars: whole synthesis.

In turn, “PEPTIDE1{A.G.Y.L.L.G.K.I.N.L.K.A.L.A.A.L.A.K.K.I.L.[am]}$$$$V2.0” came in with an isolated yield of 34%.
To “PEPTIDE1{[Prop].R.R.R.R.R.R.R.R.R.[am]}$$$$V2.0” belongs 24%; to “PEPTIDE1{[Prop].Y.G.R.K.K.R.R.Q.R.R.R.[am]}$$$$V2.0”, 24%.
